Drawing on the supplement of paper PMC12595434, “Development of retinoid nuclear receptor pathway antagonists through targeting aldehyde dehydrogenase 1A3” (iScience, 2025), this text covers melting temperature shift for 70 targets.

The chains behind the UniProt entries cited, without tags or fusion partners. Where a name states a change or a piece, a line headed by the entry shows the natural chain unless it says otherwise.
UniProt O14773: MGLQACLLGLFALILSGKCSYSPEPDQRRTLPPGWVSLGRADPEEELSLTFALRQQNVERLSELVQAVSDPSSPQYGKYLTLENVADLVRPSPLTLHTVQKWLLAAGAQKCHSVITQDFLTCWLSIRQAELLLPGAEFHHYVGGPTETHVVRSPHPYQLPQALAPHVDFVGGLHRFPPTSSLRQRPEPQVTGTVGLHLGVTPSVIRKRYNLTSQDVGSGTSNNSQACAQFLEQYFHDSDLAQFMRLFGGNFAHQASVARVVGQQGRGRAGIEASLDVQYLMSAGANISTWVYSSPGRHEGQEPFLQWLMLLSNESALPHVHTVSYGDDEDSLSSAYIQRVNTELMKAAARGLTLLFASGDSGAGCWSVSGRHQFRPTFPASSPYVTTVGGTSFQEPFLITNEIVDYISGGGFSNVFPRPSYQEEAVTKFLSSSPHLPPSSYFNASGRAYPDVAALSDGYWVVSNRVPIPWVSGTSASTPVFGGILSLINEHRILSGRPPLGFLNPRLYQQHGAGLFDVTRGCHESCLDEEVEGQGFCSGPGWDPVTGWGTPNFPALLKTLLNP
UniProt O43159: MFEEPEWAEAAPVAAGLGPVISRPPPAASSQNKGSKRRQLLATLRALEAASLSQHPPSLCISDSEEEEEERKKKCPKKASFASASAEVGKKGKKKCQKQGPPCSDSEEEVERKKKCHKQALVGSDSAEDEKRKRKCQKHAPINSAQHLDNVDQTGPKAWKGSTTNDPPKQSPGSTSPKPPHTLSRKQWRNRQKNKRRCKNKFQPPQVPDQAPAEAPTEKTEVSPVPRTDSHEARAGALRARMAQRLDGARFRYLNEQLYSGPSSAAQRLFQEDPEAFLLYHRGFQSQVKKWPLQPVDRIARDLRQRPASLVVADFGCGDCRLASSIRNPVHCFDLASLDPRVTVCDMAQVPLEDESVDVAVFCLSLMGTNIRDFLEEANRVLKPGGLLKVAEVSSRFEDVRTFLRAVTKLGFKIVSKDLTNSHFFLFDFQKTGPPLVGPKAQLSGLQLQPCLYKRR
UniProt O00425, whole entry: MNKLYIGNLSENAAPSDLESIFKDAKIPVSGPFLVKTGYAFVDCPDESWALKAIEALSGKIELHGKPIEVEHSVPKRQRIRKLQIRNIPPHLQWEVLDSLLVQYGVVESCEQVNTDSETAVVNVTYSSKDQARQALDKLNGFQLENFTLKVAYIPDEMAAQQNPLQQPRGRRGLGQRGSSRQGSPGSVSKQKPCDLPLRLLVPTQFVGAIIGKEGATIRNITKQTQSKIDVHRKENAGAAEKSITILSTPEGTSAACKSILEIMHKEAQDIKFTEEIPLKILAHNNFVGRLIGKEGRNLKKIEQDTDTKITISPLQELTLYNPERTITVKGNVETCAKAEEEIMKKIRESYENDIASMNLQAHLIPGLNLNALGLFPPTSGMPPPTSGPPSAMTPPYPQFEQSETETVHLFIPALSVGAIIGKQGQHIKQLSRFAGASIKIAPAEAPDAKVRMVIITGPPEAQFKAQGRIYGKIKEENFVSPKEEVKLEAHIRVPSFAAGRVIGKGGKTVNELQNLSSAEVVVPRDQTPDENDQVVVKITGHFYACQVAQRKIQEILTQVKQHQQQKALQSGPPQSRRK
UniProt O14957: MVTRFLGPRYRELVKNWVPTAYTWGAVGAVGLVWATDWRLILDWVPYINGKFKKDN
UniProt O00463: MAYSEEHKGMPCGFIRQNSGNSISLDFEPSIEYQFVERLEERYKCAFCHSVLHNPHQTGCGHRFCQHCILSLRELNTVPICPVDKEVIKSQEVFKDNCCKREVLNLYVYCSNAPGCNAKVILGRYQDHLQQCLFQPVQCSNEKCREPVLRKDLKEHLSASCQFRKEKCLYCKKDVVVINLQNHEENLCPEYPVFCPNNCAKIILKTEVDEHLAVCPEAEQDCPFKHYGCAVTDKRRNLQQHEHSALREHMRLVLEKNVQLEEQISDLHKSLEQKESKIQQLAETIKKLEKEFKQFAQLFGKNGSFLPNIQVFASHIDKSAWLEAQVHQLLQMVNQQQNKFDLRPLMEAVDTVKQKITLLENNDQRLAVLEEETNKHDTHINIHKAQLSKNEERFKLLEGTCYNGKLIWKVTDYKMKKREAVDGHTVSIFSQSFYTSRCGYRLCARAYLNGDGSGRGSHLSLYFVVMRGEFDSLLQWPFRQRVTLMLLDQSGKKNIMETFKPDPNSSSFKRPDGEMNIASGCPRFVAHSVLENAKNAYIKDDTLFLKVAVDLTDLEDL
UniProt O14907: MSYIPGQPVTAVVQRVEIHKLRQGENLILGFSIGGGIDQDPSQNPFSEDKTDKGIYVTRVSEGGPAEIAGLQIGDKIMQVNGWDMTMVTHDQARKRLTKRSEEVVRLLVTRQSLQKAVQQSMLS
UniProt O15344: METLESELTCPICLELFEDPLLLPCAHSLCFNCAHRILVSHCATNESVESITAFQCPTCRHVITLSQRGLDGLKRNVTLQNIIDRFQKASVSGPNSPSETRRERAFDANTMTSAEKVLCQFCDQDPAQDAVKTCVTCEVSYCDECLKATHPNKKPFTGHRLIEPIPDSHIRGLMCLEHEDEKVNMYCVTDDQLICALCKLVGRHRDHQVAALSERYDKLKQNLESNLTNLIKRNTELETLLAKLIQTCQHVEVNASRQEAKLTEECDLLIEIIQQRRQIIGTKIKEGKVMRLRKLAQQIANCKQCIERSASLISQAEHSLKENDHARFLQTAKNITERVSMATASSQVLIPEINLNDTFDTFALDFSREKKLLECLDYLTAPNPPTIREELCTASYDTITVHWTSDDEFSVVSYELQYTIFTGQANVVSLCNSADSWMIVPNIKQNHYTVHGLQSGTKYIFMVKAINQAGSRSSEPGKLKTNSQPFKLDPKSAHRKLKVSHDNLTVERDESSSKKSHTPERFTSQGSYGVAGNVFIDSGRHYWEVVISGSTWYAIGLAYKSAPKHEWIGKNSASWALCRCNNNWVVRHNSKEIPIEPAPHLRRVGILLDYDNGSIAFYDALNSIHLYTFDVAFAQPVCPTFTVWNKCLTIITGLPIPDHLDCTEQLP
UniProt B2RTY4: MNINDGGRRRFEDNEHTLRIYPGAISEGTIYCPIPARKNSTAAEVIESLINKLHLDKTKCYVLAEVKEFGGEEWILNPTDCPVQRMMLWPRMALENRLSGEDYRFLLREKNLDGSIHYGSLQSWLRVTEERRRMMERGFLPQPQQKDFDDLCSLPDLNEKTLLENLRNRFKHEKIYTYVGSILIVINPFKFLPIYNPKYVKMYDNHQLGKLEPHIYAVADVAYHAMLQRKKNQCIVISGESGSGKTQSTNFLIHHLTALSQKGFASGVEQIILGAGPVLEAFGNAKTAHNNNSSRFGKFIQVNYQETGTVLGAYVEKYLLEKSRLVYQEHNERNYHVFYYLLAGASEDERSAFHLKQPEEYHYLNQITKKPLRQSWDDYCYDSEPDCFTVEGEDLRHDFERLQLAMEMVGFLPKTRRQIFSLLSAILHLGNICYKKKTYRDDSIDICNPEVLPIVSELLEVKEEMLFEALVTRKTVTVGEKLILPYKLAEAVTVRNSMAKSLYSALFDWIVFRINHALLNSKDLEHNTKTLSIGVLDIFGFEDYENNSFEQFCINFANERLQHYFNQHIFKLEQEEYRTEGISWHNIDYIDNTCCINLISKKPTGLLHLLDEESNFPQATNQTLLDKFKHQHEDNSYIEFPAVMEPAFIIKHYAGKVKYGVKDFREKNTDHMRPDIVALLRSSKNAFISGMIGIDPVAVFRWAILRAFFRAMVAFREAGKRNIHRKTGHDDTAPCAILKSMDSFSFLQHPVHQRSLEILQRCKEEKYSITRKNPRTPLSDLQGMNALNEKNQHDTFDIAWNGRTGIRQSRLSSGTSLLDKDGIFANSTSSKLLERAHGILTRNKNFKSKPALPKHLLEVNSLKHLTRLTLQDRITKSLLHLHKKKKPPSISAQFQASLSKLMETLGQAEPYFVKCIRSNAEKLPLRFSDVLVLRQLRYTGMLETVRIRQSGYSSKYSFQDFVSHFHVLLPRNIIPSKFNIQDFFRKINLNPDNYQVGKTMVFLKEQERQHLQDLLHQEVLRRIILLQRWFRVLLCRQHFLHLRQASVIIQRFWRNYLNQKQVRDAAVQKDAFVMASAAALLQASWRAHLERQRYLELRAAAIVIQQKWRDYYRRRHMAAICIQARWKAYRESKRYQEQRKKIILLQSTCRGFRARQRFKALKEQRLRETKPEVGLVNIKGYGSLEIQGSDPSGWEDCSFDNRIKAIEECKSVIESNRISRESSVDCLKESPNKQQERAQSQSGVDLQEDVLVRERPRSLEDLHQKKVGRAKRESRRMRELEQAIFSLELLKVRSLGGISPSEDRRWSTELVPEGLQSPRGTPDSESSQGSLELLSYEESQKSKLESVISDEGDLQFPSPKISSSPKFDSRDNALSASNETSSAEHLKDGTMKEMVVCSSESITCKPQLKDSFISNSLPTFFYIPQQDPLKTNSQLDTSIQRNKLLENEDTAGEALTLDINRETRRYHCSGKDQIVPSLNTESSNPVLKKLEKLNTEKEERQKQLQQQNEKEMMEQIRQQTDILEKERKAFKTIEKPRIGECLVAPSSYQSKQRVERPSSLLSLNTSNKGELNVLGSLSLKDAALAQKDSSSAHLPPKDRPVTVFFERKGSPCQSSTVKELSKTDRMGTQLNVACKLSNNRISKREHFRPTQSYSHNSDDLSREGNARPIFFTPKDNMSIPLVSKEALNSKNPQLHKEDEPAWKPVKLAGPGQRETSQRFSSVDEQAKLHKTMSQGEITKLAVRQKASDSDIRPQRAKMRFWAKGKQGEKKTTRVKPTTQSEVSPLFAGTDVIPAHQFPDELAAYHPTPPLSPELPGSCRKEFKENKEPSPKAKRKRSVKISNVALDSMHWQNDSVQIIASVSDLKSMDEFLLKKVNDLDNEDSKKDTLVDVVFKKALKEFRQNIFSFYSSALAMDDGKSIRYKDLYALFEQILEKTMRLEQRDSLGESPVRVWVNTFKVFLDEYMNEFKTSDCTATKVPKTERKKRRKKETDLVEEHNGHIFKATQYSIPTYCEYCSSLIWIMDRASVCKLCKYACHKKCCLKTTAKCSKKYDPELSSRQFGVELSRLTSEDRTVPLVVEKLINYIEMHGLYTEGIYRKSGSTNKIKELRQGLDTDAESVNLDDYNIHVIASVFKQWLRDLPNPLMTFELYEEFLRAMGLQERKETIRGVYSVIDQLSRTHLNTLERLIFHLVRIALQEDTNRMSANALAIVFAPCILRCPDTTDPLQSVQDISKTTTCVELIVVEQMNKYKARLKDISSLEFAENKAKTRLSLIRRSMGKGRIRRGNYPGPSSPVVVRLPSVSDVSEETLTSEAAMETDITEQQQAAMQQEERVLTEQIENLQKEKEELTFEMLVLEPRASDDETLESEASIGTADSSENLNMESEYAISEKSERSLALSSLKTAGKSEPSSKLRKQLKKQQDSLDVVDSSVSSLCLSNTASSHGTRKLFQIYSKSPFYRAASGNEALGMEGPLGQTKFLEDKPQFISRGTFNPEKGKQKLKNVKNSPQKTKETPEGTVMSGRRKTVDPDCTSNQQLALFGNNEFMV
UniProt O00505, whole entry: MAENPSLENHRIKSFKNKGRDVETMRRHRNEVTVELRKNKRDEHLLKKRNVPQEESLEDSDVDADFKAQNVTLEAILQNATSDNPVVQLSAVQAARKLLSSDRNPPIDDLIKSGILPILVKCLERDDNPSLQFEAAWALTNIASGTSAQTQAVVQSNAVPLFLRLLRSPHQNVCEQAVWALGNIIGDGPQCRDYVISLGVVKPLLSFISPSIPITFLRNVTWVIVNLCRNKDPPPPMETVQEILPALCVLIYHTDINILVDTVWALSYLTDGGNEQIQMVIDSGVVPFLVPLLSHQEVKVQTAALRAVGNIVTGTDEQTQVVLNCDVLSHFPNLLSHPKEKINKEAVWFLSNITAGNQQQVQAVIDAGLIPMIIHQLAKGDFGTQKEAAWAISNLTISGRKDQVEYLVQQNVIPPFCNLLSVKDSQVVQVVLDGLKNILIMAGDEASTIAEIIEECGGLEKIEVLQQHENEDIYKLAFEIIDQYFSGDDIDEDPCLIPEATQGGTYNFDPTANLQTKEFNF
UniProt O00506, whole entry, looked up: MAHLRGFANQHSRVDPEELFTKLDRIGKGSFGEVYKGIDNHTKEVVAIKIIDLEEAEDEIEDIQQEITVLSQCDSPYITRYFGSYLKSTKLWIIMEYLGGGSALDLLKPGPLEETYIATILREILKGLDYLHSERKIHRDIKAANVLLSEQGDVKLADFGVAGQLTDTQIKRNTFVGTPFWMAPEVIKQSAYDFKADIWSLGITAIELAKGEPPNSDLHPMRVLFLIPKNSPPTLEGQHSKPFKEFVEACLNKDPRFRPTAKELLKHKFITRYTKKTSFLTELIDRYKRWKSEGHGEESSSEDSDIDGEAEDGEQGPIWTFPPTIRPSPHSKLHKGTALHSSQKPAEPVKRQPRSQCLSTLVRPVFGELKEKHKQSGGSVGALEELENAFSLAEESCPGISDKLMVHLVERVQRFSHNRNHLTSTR
UniProt L0R819, whole entry: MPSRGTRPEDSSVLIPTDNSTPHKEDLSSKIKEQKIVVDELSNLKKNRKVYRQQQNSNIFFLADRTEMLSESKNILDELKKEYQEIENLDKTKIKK

This is one part of the list. This is a noisy data set.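 Tm was set to 64 °C where no melting was found, and many curves are irregular.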

Compound in the assay: CCc1cnccc1C(=O)Nc1cc2c(cc1F)NC(=O)CC2
Description: melting temperature shift (DMSO Tm minus MBE1-treated Tm) in cellular thermal proteome profiling; higher = less thermal stabilization by MBE1 (negative = stabilized by MBE1). Particulars: A375.

In the case of TRAFD1 (UniProt O14545), the melting temperature shift is -2.08 °C (MBE1 concentration: 100 nM) and 0.141 °C (MBE1 concentration: 1 uM).
In the same order, the values of PES1 (UniProt O00541) are -0.0384 °C and -0.789 °C.
Take UniProt O15321: the melting temperature shift is -0.202 °C (MBE1 concentration: 100 nM) and -1.21 °C (MBE1 concentration: 1 uM).
In the same order, the values of HAT1 (UniProt O14929) are 1.01 °C and 0.183 °C.
Take BIN1 (UniProt O00499): the melting temperature shift amounted to 0.696 °C (MBE1 concentration: 100 nM) and 1.1 °C (MBE1 concentration: 1 uM).
On the same counts, the results for BACH1 (UniProt O14867) are -2.64 °C and -0.727 °C.
In the same order, the values of EXOC5 (UniProt O00471) are -0.579 °C and -0.325 °C.
For the target APAF1 (UniProt O14727), the melting temperature shift was found to be 0.118 °C (MBE1 concentration: 100 nM) and 0.4 °C (MBE1 concentration: 1 uM).
On the same counts, the results for UniProt O00287 are -7.64 °C and -5.29 °C.
Take TPP1 (UniProt O14773): the melting temperature shift runs as follows: (MBE1 concentration: 100 nM) -0.838 °C; (MBE1 concentration: 1 uM) 0.644 °C.
In the same order, the values of UniProt O00221 are 0.104 °C and -0.287 °C.
In the same order, the values of SMCHD1 (UniProt A6NHR9) are -0.365 °C and -0.308 °C.
On the same counts, the results for PIR (UniProt O00625) are -1.19 °C and 0.177 °C.
As for UniProt O15020, the melting temperature shift (MBE1 concentration: 100 nM) turned out to be 0.421 °C and the melting temperature shift (MBE1 concentration: 1 uM) came to 0.055 °C.
For the target UniProt O43157, the melting temperature shift (MBE1 concentration: 100 nM) was 0.695 °C and the melting temperature shift (MBE1 concentration: 1 uM) was -0.416 °C.
In the case of PRPF4 (UniProt O43172), the melting temperature shift (MBE1 concentration: 100 nM) was -0.428 °C and the melting temperature shift (MBE1 concentration: 1 uM) is -0.805 °C.
In the same order, the values of UniProt O43159 are -0.115 °C and -0.231 °C.
Turning to SPTLC1 (UniProt O15269), the melting temperature shift (MBE1 concentration: 100 nM) was 0.0244 °C and the melting temperature shift (MBE1 concentration: 1 uM) amounted to 0.916 °C.
For RIOK3 (UniProt O14730), the melting temperature shift reads like this: (MBE1 concentration: 100 nM) -1.14 °C; (MBE1 concentration: 1 uM) -1.94 °C.
On the same counts, the results for AP4M1 (UniProt O00189) are -0.805 °C and -1.35 °C.
In the same order, the values of GATSL2 (UniProt A6NHX0) are -2.47 °C and -0.775 °C.
Take SDCBP (UniProt O00560): the melting temperature shift came to 0.999 °C (MBE1 concentration: 100 nM) and 0.434 °C (MBE1 concentration: 1 uM).
In the same order, the values of IGF2BP3 (UniProt O00425) are -1.09 °C and -0.467 °C.
On the same counts, the results for UniProt A8K0Z3 are -1.25 °C and -0.677 °C.
In the same order, the values of UNC13B (UniProt O14795) are -1.26 °C and -0.147 °C.
Take UniProt O00562: the melting temperature shift (MBE1 concentration: 100 nM) is 1.54 °C and the melting temperature shift (MBE1 concentration: 1 uM) was 1.21 °C.
For the target IPO5 (UniProt O00410), the melting temperature shift by setting is: (MBE1 concentration: 100 nM) -0.516 °C; (MBE1 concentration: 1 uM) 0.57 °C.
In the same order, the values of ARPC5 (UniProt O15511) are -2.67 °C and -0.794 °C.
In the same order, the values of ARID1A (UniProt O14497) are -0.448 °C and -0.282 °C.
For UniProt O14896, the melting temperature shift by setting is: (MBE1 concentration: 100 nM) -0.827 °C; (MBE1 concentration: 1 uM) 0 °C.
Turning to UniProt O14957, the melting temperature shift (MBE1 concentration: 100 nM) was -0.318 °C and the melting temperature shift (MBE1 concentration: 1 uM) was -4.2 °C.
In the same order, the values of STXBP3 (UniProt O00186) are -0.48 °C and -0.833 °C.
On to ABCC4 (UniProt O15439), for which the melting temperature shift was -1.25 °C (MBE1 concentration: 100 nM) and -0.452 °C (MBE1 concentration: 1 uM).
On the same counts, the results for SURF4 (UniProt O15260) are -1.57 °C and 1.76 °C.
In the same order, the values of SCD (UniProt O00767) are -0.543 °C and -4.32 °C.
In the same order, the values of CEP290 (UniProt O15078) are -1.37 °C and -0.402 °C.
Turning to SPTLC2 (UniProt O15270), the melting temperature shift is -0.282 °C (MBE1 concentration: 100 nM) and 0.255 °C (MBE1 concentration: 1 uM).
In the case of FAM83G (UniProt A6ND36), the melting temperature shift (MBE1 concentration: 100 nM) is -3.72 °C and the melting temperature shift (MBE1 concentration: 1 uM) was -0.195 °C.
In the same order, the values of SYNJ2 (UniProt O15056) are -0.00941 °C and -0.24 °C.
On the same counts, the results for UniProt O14523 are -1.12 °C and 0 °C.
In the same order, the values of UniProt O43298 are -3.36 °C and -1.04 °C.
Take TTI1 (UniProt O43156): the melting temperature shift was -1.21 °C (MBE1 concentration: 100 nM) and -0.516 °C (MBE1 concentration: 1 uM).
In the same order, the values of UniProt O15040 are 0.181 °C and 0.148 °C.
On the same counts, the results for CHD1 (UniProt O14646) are -0.0384 °C and -0.574 °C.
In the same order, the values of UniProt L0R8F8 are -0.47 °C and -0.159 °C.
With UniProt O15050, the melting temperature shift is -0.841 °C (MBE1 concentration: 100 nM) and 0.463 °C (MBE1 concentration: 1 uM).
In the same order, the values of UniProt O00463 are -1.17 °C and 1.3 °C.
In the same order, the values of GTPBP1 (UniProt O00178) are 1.22 °C and 0.421 °C.
In the case of PHGDH (UniProt O43175), the melting temperature shift runs as follows: (MBE1 concentration: 100 nM) -0.623 °C; (MBE1 concentration: 1 uM) 0.0672 °C.
On the same counts, the results for UBE2C (UniProt O00762) are -0.334 °C and -0.349 °C.
In the same order, the values of UniProt A5D8V6 are -1.3 °C and -1.06 °C.
On the same counts, the results for MANBA (UniProt O00462) are -1.4 °C and 0.568 °C.
For the target TAX1BP3 (UniProt O14907), the melting temperature shift runs as follows: (MBE1 concentration: 100 nM) -0.795 °C; (MBE1 concentration: 1 uM) 0.0381 °C.
On the same counts, the results for ABCC5 (UniProt O15440) are -0.543 °C and 0.318 °C.
On the same counts, the results for MID1 (UniProt O15344) are 0.153 °C and 0.171 °C.
On the same counts, the results for PPP6C (UniProt O00743) are -0.557 °C and -1.04 °C.
Take TRIM24 (UniProt O15164): the melting temperature shift was -0.333 °C (MBE1 concentration: 100 nM) and -0.0641 °C (MBE1 concentration: 1 uM).
On the same counts, the results for UniProt B2RTY4 are 0.714 °C and 0.641 °C.
On the same counts, the results for ARPC2 (UniProt O15144) are -0.644 °C and -0.0472 °C.
On the same counts, the results for KPNA3 (UniProt O00505) are 1.07 °C and 0.733 °C.
On to U2SURP (UniProt O15042), for which the melting temperature shift reads like this: (MBE1 concentration: 100 nM) -0.583 °C; (MBE1 concentration: 1 uM) -0.34 °C.
On the same counts, the results for UniProt O43294 are -2.74 °C and -0.425 °C.
On the same counts, the results for STK25 (UniProt O00506) are 0.788 °C and -1.02 °C.
For SUPT5H (UniProt O00267), the melting temperature shift by setting is: (MBE1 concentration: 100 nM) 0.586 °C; (MBE1 concentration: 1 uM) -0.0427 °C.
On the same counts, the results for PMM2 (UniProt O15305) are -0.59 °C and -0.241 °C.
For AGPS (UniProt O00116), the melting temperature shift is -0.547 °C (MBE1 concentration: 100 nM) and 0.385 °C (MBE1 concentration: 1 uM).
On the same counts, the results for PSMD3 (UniProt O43242) are -0.812 °C and -0.222 °C.
In the same order, the values of UniProt L0R819 are 0 °C and 0 °C.
In the same order, the values of STX16 (UniProt O14662) are 0.91 °C and 0.611 °C.
As to PDLIM1 (UniProt O00151), the melting temperature shift is -4.12 °C (MBE1 concentration: 100 nM) and -4.01 °C (MBE1 concentration: 1 uM).
